# Test results as given in the supplement of paper PMC7238544.
# Counter-ions that a name gives are not always drawn. ± gives the standard deviation of the averaged measurements. The list shows a part of the results. The data scatter; read single values as rough.
# Test system: hAMSC donor 1
# Test: Hoechst total cell count ratio vs vehicle control; hAMSC are human adipose-derived mesenchymal stem cells given an EGFP-luciferase plasmid by lipofection; higher = more cells (less toxicity)
# Details: priming compound concentration 0.2 µM
row,SMILES,Hoechst total cell count ratio
1,C[C@]12C/C(=C/O)C(=O)C[C@@H]1CC[C@@H]1[C@@H]2CC[C@@]2(C)[C@H]1CC[C@]2(C)O [Oxymetholone],1.05 ± 0.13
2,FC(F)(F)c1cccc(N2CCNCC2)c1 [TFMPP hydrochloride],1.11 ± 0.19
3,CN(C)C(=O)Oc1ccc[n+](C)c1 [Pyridostigmine bromide],1.37 ± 0.15
4,Oc1cc(Cl)ccc1Oc1ccc(Cl)cc1Cl [Triclosan],1.3 ± 0.16
5,CCOC(=O)c1cncn1[C@H](C)c1ccccc1 [Etomidate],1.38 ± 0.031
6,CCOC(=O)C1(c2ccccc2)CCN(CCC(C#N)(c2ccccc2)c2ccccc2)CC1 [Diphenoxylate hydrochloride],1.36 ± 0.21
7,CCCCC/C=C\C/C=C\C/C=C\C/C=C\CCCC(=O)Nc1ccc(O)cc1,1.38 ± 0.23
8,CCCCCCCCCOc1ccc2[nH]cc(CCN)c2c1 [5-Nonyloxytryptamine hydrochloride],1.12 ± 0.045
9,COc1ccc(CCN)cc1OC [Homoveratrylamine],1.03 ± 0.061
10,O=C(O)C(Cl)Cl [Dichloroacetic acid],1.22 ± 0.089
11,C[C@]12CC[C@H](O)CC1=CC[C@@H]1[C@@H]2CC[C@@]2(C)[C@H]1CC[C@]2(C)O [Methylandrostenediol],1.12 ± 0.03
12,C=C(C)CN1CC[C@@]23c4c5ccc(O)c4O[C@H]2c2[nH]c4ccccc4c2C[C@]3(O)C1C5 [SDM25N hydrochloride],1.44 ± 0.14
13,c1ccc2c(c1)Nc1ccccc1S2 [Phenothiazine],1.13 ± 0.14
14,CN1CC[C@@H](c2ccc(F)cc2)[C@H](COc2ccc3c(c2)OCO3)C1 [N-Methylparoxetine],1.16 ± 0.1
15,CN1C(=O)CN=C(c2ccccc2)c2cc(Cl)ccc21 [Diazepam],1.18 ± 0.13

# Same assay, conditions: priming compound concentration 1.7 µM
row,SMILES,Hoechst total cell count ratio
1,COC(=O)N1CCN(C(=O)Cc2ccc(Cl)c(Cl)c2)C(CN2CCCC2)C1 (configuration not stated),1.25 ± 0.068
2,c1ccc(Cn2ccnc2)cc1 [Benzylimidazole],1.23 ± 0.092
3,O=C1CN=C(c2ccccc2)c2cc([N+](=O)[O-])ccc2N1 [Nitrazepam],1.27 ± 0.089
4,C[C@]12CC[C@H](O)CC1=CC[C@@H]1[C@@H]2CC[C@]2(C)C(=O)CC[C@@H]12 [Dehydroepiandrosterone],1.27 ± 0.086
5,O=C1CC[C@@]2(O)[C@H]3Cc4ccc(O)c5c4[C@@]2(CCN3CC2CC2)[C@H]1O5 [Naltrexone hydrochloride],1.2 ± 0.13
6,N=C(NCc1ccc(Cl)cc1)SCCCc1c[nH]cn1 [Clobenpropit],1.2 ± 0.046
7,C=C(C)[C@@H]1[C@H]2OC(=O)[C@@H]1[C@]1(O)C[C@H]3O[C@]34C(=O)O[C@H]2[C@]14C.CC(C)(O)[C@@H]1[C@H]2OC(=O)[C@@H]1[C@]1(O)C[C@H]3O[C@]34C(=O)O[C@H]2[C@]14C [Picrotin - Picrotoxinin],1.285 ± 0.0066
8,C[C@]12Cc3c[nH]nc3C[C@@H]1CC[C@@H]1[C@@H]2CC[C@@]2(C)[C@H]1CC[C@]2(C)O [Stanozolol],1.21 ± 0.1
9,C[N+]1(C)CCCC(OC(=O)C(O)(c2ccccc2)c2ccccc2)C1 (configuration not stated) [Mepenzolate bromide],1.14 ± 0.18
10,CN[C@@H]1C[C@@H](c2ccc(Cl)c(Cl)c2)c2ccccc21 [Indatraline hydrochloride],1.07 ± 0.06
11,C#CCN(C)[C@H](C)Cc1ccccc1 [Selegiline hydrochloride],1.37 ± 0.21
12,C[C@]12CC[C@H]3[C@@H](CCC4=CC(=O)CC[C@@]43C)[C@@H]1CC[C@@H]2O [Testosterone],1.04 ± 0.13
13,C[C@]12C/C(=C/O)C(=O)C[C@@H]1CC[C@@H]1[C@@H]2CC[C@@]2(C)[C@H]1CC[C@]2(C)O [Oxymetholone],1.12 ± 0.047
14,FC(F)(F)c1cccc(N2CCNCC2)c1 [TFMPP hydrochloride],1.07 ± 0.15
15,CN(C)C(=O)Oc1ccc[n+](C)c1 [Pyridostigmine bromide],1.22 ± 0.093
16,Oc1cc(Cl)ccc1Oc1ccc(Cl)cc1Cl [Triclosan],1.32 ± 0.15
17,CCOC(=O)c1cncn1[C@H](C)c1ccccc1 [Etomidate],1.34 ± 0.082
18,CCOC(=O)C1(c2ccccc2)CCN(CCC(C#N)(c2ccccc2)c2ccccc2)CC1 [Diphenoxylate hydrochloride],1.06 ± 0.21
19,CCCCC/C=C\C/C=C\C/C=C\C/C=C\CCCC(=O)Nc1ccc(O)cc1,1.33 ± 0.091
20,CCCCCCCCCOc1ccc2[nH]cc(CCN)c2c1 [5-Nonyloxytryptamine hydrochloride],1.09 ± 0.18
21,COc1ccc(CCN)cc1OC [Homoveratrylamine],1.21 ± 0.087
22,O=C(O)C(Cl)Cl [Dichloroacetic acid],1.18 ± 0.077
23,C[C@]12CC[C@H](O)CC1=CC[C@@H]1[C@@H]2CC[C@@]2(C)[C@H]1CC[C@]2(C)O [Methylandrostenediol],1.17 ± 0.15
24,C=C(C)CN1CC[C@@]23c4c5ccc(O)c4O[C@H]2c2[nH]c4ccccc4c2C[C@]3(O)C1C5 [SDM25N hydrochloride],1.28 ± 0.21
25,c1ccc2c(c1)Nc1ccccc1S2 [Phenothiazine],1.26 ± 0.082
26,CN1CC[C@@H](c2ccc(F)cc2)[C@H](COc2ccc3c(c2)OCO3)C1 [N-Methylparoxetine],1.29 ± 0.11
27,CN1C(=O)CN=C(c2ccccc2)c2cc(Cl)ccc21 [Diazepam],1.07 ± 0.13
